Data reported in PMC11939857.
No constants are given. Whether binding was seen depends on the method and setting. In cells and extracts the contact can be indirect. These calls come from enrichment with a bait or labelling near it, and not all partners need be listed. No binding means not detected with the bait. Where a sequence is shown, tags or fusion partners need not be part of it.

Biological target: T1, GFP-PRAG1-TurboID (Peak1-related, kinase-activating pseudokinase 1) (human) (UniProt Q86YV5)
T1 sequence: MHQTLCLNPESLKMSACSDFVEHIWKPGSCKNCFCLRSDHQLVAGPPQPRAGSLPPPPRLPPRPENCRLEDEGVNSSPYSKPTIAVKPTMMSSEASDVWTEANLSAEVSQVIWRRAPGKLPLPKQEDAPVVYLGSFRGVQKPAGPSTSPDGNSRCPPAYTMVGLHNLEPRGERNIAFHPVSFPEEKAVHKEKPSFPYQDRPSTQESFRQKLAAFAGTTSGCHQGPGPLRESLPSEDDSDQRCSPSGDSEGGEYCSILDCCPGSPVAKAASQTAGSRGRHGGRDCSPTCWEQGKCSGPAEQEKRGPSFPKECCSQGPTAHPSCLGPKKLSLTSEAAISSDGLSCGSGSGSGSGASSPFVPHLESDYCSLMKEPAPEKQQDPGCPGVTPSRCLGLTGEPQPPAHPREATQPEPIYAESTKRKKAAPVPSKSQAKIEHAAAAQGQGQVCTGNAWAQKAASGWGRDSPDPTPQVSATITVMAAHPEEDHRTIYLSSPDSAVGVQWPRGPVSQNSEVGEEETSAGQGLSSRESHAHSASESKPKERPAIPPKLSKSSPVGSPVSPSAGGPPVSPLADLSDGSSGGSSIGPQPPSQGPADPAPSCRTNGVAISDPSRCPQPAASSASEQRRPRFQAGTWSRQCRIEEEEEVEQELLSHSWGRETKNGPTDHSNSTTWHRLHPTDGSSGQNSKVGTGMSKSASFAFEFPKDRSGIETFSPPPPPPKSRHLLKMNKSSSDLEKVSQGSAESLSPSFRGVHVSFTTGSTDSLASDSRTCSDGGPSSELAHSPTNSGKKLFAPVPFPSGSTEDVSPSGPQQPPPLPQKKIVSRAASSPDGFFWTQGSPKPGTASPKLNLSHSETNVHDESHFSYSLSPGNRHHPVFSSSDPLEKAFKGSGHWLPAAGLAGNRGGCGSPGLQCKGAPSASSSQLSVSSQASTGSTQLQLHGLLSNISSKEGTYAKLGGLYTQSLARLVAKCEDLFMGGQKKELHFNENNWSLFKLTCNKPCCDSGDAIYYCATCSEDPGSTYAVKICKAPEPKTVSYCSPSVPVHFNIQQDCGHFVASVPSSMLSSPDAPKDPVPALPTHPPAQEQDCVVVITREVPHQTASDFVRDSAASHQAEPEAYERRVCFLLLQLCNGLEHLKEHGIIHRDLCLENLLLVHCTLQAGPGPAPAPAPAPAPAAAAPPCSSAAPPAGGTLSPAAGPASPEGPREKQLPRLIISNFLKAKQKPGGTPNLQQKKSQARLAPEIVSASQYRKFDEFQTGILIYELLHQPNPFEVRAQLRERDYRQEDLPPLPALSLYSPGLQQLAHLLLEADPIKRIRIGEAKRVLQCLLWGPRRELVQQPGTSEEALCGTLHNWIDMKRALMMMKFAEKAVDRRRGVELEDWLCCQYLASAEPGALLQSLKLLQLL
Assay: proximity labelling; TurboID: GFP-PRAG1-TurboID against GFP-TurboID in HEK293T cells, 500 µM biotin for 15 min at 37 °C, weak RIPA lysate, streptavidin magnetic beads, mass spectrometry, four biological replicates

- binding: no binding
B1: RND2 (protein, UniProt P52198 1-227)
chain: MEGQSGRCKIVVVGDAECGKTALLQVFAKDAYPGSYVPTVFENYTASFEIDKRRIELNMWDTSGSSYYDNVRPLAYPDSDAVLICFDISRPETLDSVLKKWQGETQEFCPNAKVVLVGCKLDMRTDLATLRELSKQRLIPVTHEQGTVLAKQVGAVSYVECSSRSSERSVRDVFHVATVASLGRGHRQLRRTDSRRGMQRSAQLSGRPDRGNEGEIHKDRAKSCNLM
